Some of the results follow.
How the values were obtained:
Assay in all cases: log2 fold change, soluble protein after heating vs DMSO (PISA); higher = thermal stabilisation; K562 lysate, 10 uM; active = over 0.2 and 3.5 SD of the protein, either way, in both replicates (recomputed)
[1] = compound: NCC(=O)Nc1ccc(-n2nc(C(F)(F)F)cc2-c2ccc3c(ccc4ccccc43)c2)cc1
Method in brief: (§1)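 Soluble protein was defined as the supernatant remaining after 21,000xg for 90 min, following pooling of heated aliquots and adjustment to 0.5% NP-40 at 4°C. Before that, crude K562 extract at 1 mg/mL protein in PBS pH 7.4 with 1 mM MgCl2 was treated with 10 μM compound for 30 min and heated for 3 min across 48°C-58°C. Quantification used TMTpro 16plex LC-MS/MS with channel sums equalised, and values are log-two fold changes in thermal stability relative to solvent controls from duplicates.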

Chains of the proteins cited; added tags and fusions are not shown. Lines headed by an entry give the natural chain unless they say otherwise; changes in a name come on top.
UniProt O43196: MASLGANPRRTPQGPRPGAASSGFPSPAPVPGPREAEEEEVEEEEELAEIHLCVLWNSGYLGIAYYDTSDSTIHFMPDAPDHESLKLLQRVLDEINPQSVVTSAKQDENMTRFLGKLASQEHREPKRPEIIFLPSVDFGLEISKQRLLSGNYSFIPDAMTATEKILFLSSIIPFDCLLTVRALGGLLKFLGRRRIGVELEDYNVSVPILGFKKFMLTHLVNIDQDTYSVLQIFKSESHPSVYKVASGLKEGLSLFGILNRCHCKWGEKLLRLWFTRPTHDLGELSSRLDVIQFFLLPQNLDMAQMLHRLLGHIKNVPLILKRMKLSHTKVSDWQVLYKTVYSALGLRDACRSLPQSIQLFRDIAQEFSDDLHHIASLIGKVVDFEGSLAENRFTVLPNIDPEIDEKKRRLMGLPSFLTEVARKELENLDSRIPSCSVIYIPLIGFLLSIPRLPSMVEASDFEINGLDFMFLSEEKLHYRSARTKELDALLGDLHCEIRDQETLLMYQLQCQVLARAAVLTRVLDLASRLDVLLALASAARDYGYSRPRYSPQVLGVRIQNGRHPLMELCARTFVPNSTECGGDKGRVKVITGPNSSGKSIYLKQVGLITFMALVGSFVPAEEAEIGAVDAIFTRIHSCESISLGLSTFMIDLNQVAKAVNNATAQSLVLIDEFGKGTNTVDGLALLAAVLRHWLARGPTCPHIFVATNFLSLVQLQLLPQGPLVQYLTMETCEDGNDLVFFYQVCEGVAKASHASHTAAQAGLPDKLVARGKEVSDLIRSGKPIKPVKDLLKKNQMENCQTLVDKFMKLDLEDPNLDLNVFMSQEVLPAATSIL
UniProt Q13615: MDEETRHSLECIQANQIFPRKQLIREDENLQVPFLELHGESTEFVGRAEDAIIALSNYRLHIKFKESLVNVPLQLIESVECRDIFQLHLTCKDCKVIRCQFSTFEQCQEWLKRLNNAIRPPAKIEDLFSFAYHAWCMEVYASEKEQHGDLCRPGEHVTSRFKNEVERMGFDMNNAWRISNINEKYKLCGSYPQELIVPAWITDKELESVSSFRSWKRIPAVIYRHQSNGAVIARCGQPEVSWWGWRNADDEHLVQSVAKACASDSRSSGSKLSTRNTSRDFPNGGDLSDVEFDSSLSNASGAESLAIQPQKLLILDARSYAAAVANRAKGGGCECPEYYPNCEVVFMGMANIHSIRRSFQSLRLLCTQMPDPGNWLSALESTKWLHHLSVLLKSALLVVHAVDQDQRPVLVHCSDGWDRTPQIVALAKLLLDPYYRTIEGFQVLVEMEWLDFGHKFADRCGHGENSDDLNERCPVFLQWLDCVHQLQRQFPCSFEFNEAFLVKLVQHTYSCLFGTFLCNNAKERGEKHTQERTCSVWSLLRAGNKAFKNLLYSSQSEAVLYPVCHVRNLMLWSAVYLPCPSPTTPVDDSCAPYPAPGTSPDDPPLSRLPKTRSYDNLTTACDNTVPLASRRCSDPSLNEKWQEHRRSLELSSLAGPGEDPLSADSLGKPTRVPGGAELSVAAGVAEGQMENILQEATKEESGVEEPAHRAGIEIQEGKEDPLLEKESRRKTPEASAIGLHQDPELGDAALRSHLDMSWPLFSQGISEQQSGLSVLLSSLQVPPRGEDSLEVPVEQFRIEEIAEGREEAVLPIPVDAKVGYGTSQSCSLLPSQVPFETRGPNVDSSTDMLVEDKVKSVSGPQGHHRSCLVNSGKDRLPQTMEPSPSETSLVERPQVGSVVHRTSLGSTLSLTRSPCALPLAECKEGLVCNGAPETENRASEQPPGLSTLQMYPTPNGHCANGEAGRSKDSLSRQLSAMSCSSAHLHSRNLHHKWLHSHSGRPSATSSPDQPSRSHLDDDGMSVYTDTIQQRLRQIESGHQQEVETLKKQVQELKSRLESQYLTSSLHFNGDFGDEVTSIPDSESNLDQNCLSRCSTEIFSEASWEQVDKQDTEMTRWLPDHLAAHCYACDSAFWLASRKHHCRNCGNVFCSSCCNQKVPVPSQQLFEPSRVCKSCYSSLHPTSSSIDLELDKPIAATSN
UniProt Q96EF0: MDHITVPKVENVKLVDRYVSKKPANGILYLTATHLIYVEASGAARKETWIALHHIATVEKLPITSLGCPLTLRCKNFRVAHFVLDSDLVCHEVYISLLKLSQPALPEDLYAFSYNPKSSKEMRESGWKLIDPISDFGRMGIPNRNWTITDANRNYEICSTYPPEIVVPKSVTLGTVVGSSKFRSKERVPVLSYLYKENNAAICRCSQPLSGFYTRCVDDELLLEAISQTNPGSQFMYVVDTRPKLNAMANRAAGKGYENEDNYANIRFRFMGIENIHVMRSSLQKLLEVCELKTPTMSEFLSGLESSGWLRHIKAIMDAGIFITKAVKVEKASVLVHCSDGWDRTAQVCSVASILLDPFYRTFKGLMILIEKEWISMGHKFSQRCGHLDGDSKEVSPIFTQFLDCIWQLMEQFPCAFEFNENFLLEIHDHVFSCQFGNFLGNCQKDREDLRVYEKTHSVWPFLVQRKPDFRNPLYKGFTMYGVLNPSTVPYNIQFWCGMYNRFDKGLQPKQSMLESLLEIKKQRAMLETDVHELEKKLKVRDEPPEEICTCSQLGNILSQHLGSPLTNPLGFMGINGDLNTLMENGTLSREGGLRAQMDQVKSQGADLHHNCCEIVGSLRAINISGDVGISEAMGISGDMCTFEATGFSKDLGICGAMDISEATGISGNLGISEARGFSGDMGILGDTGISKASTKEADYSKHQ
UniProt Q96HJ5: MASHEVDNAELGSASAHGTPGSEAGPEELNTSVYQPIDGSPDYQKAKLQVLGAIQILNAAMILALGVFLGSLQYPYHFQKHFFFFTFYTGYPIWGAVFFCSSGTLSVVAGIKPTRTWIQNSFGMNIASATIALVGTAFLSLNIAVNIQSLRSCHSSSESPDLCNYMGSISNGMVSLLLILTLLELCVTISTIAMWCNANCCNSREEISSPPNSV
UniProt Q93083: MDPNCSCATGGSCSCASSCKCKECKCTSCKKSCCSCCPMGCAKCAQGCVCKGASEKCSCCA
UniProt Q96DP5: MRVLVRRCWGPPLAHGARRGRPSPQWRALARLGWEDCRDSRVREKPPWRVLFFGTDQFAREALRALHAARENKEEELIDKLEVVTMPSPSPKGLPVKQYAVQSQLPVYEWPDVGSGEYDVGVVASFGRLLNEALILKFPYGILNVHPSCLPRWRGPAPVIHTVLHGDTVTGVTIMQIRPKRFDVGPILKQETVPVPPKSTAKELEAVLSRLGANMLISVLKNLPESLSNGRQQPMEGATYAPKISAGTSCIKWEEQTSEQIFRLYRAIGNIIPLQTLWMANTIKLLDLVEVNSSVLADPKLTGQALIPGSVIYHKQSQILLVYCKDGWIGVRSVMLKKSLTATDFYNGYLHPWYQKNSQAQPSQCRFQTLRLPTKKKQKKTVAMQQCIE
UniProt Q49AM1: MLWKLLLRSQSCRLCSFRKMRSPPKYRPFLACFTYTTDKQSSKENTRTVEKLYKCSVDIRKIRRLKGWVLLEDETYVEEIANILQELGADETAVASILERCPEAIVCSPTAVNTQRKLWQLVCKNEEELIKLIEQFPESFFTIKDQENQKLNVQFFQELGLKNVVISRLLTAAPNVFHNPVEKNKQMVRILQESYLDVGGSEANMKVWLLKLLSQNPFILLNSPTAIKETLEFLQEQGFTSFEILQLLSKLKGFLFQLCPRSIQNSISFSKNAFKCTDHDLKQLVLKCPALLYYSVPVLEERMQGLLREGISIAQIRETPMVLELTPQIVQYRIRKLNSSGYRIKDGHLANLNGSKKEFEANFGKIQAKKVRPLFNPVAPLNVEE
UniProt Q9UJ68: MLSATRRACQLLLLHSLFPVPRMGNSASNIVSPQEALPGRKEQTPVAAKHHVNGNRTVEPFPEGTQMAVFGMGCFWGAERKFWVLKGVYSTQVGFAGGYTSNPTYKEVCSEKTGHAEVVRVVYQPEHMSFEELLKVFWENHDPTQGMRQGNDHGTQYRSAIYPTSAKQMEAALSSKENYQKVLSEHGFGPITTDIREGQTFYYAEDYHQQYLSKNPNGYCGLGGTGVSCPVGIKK
UniProt P03897, whole entry, looked up: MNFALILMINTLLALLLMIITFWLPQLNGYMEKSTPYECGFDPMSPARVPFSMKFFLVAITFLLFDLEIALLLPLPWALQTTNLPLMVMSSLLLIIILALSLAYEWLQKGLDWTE
UniProt P03923, whole entry, looked up: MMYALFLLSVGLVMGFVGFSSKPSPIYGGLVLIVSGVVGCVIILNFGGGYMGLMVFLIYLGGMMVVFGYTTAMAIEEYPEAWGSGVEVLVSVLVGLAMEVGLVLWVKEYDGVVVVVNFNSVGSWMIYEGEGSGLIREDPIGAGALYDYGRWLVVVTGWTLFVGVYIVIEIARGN
UniProt Q9Y4B5: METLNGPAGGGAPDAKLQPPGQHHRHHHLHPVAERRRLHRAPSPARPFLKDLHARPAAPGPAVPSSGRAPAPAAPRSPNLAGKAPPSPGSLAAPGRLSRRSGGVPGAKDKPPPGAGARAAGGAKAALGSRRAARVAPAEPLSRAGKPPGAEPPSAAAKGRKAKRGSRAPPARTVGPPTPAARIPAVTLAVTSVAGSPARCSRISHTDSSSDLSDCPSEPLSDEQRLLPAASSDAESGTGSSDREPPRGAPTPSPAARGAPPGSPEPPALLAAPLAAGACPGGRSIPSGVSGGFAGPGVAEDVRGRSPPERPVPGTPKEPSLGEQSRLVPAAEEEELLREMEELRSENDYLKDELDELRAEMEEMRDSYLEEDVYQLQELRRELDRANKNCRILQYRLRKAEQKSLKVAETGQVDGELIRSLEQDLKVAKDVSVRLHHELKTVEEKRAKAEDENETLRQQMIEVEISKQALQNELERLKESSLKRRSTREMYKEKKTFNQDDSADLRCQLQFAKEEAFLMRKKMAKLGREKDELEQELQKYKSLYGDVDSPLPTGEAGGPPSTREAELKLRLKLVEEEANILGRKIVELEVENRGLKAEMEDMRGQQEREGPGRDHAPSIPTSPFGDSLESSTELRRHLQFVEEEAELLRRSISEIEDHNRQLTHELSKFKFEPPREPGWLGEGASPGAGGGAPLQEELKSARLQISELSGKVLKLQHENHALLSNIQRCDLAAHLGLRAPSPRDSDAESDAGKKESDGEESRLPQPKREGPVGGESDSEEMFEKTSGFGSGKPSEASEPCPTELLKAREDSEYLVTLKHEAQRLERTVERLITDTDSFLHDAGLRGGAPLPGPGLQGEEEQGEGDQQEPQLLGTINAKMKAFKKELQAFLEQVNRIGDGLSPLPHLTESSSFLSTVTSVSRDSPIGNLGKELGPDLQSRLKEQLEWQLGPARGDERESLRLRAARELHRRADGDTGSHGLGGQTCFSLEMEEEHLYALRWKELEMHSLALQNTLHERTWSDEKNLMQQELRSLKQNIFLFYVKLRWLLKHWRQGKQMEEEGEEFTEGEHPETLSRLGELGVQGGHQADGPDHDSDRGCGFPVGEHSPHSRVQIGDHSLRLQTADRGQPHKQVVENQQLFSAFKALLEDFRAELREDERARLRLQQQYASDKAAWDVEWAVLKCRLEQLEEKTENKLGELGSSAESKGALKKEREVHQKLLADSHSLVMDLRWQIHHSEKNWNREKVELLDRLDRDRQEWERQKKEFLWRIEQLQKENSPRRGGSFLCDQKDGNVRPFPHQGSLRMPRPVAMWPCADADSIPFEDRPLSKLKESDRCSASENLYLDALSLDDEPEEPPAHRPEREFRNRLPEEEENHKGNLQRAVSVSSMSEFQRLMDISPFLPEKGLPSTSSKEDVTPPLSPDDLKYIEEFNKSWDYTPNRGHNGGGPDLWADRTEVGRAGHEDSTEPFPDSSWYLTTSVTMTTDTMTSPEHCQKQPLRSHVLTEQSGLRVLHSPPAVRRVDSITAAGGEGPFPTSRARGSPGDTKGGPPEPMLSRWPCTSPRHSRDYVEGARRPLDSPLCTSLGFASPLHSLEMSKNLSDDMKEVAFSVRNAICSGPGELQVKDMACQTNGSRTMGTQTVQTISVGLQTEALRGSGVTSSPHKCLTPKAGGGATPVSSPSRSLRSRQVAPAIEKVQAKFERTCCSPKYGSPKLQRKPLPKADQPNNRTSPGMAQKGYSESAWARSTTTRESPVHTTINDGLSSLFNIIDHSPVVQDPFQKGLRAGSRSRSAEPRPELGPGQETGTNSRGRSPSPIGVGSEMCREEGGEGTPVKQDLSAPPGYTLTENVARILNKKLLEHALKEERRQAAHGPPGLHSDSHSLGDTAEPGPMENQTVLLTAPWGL
UniProt Q2M296: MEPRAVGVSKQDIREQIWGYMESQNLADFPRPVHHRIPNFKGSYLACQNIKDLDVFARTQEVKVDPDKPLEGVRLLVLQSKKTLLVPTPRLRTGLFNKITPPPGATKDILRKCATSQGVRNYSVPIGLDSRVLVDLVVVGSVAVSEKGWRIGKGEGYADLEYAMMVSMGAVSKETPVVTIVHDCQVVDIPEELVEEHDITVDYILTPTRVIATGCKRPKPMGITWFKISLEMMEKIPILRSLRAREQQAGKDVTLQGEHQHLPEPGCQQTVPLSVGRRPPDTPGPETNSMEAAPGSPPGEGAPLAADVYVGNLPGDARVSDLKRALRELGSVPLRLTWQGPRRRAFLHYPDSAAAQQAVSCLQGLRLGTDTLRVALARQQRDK

vorinostat = compound: O=C(CCCCCCC(=O)Nc1ccccc1)NO [vorinostat]
Method in brief: as §1

silmitasertib = compound: O=C(O)c1ccc2c(c1)nc(Nc1cccc(Cl)c1)c1ccncc12 [silmitasertib]
Method in brief: as §1

[2] = compound: O=C1NC(=O)C(c2cnc3ccccn23)=C1c1cn2c3c(cc(F)cc13)CN(C(=O)N1CCCCC1)CC2
Method in brief: as §1

entospletinib = compound: c1cn2cc(-c3ccc4cn[nH]c4c3)nc(Nc3ccc(N4CCOCC4)cc3)c2n1 [entospletinib]
Method in brief: as §1

Measured: log2 fold change

MRPL38 (UniProt Q96DV4)
inactive: [1] -0.08 | vorinostat -0.077 | silmitasertib 0.105 | [2] -0.033 | entospletinib 0.025

MRS2 isoform 2 (UniProt Q9HD23)
inactive: [2] -0.132

MRPL27 (UniProt Q9P0M9)
inactive: vorinostat 0.087 | silmitasertib 0.106 | [2] -0.008 | entospletinib -0.027

MRPL43 isoform 4 (UniProt Q8N983)
inactive: [1] 0.001 | vorinostat 0.042 | silmitasertib -0.017 | [2] 0.005 | entospletinib 0

MRPL50 (UniProt Q8N5N7)
inactive: [1] -0.035 | vorinostat 0.068 | silmitasertib -0.043 | [2] 0.047 | entospletinib -0.039

Random excerpt: 2 entries already listed.
MRPL43 isoform 4 (UniProt Q8N983)
inactive: [1] 0.001 | vorinostat 0.042 | silmitasertib -0.017 | [2] 0.005 | entospletinib 0

MRPL27 (UniProt Q9P0M9)
inactive: vorinostat 0.087 | silmitasertib 0.106 | [2] -0.008 | entospletinib -0.027

(list continues)

MSH5 isoform 3 (UniProt O43196)
inactive: [2] -0.105 | entospletinib -0.217

MTMR3 (UniProt Q13615)
inactive: [1] 0.003 | vorinostat -0.165 | silmitasertib 0 | [2] 0.013 | entospletinib -0.006

MTMR8 (UniProt Q96EF0)
inactive: vorinostat -0.081 | silmitasertib 0.313

MTURN (UniProt Q8N3F0)
inactive: [2] 0.086 | entospletinib -0.037

MRPS25 (UniProt P82663)
inactive: [1] -0.054 | vorinostat -0.082 | silmitasertib 0.048 | [2] -0.069 | entospletinib -0.022

MRPL45 (UniProt Q9BRJ2)
inactive: [1] 0.018 | vorinostat -0.14 | silmitasertib 0.005 | [2] -0.015 | entospletinib 0.007

MS4A3 (UniProt Q96HJ5)
inactive: [1] -0.05 | [2] 0.11 | entospletinib -0.055

MT1L (UniProt Q93083)
inactive: [2] 0.107

MTFMT (UniProt Q96DP5)
inactive: vorinostat -0.199 | silmitasertib 0.138 | [2] 0.103

MRPL34 (UniProt Q9BQ48)
inactive: [2] 0.054 | entospletinib -0.242

MRPS11 (UniProt P82912)
inactive: [1] -0.03 | vorinostat -0.071 | silmitasertib 0.02 | [2] 0.078 | entospletinib -0.024

MRPS15 (UniProt P82914)
inactive: vorinostat -0.138 | silmitasertib -0.065 | [2] 0.028 | entospletinib -0.034

MRPL4 (UniProt Q9BYD3)
inactive: [1] 0.01 | vorinostat 0.033 | silmitasertib -0.037 | [2] 0.017 | entospletinib 0.015

MTERF2 (UniProt Q49AM1)
inactive: vorinostat 0.113 | silmitasertib 0.047 | [2] 0.159 | entospletinib -0.087

MRPS14 (UniProt O60783)
inactive: [1] -0.011 | [2] 0.1 | entospletinib -0.209

MSRA (UniProt Q9UJ68)
inactive: entospletinib -0.032

MTHFD2L (UniProt Q9H903)
inactive: vorinostat 0.176 | silmitasertib -0.081 | [2] 0.089

MRPL55 isoform 2 (UniProt Q7Z7F7)
inactive: [1] 0.027 | vorinostat 0.036 | silmitasertib 0.081 | [2] 0.015 | entospletinib -0.021

MT-ND3 (UniProt P03897)
inactive: vorinostat -0.351 | silmitasertib 0.119 | [2] -0.139 | entospletinib 0.096

MT-ND6 (UniProt P03923)
inactive: vorinostat 0.145 | silmitasertib -0.004 | [2] -0.034

MTCL1 (UniProt Q9Y4B5)
inactive: [1] 0.033 | vorinostat 0.095 | silmitasertib -0.016 | [2] -0.016 | entospletinib 0.01

MTHFSD (UniProt Q2M296)
inactive: vorinostat -0.008 | silmitasertib -0.088 | [2] 0.032 | entospletinib 0.081

MRPL47 (UniProt Q9HD33)
inactive: [1] -0.048 | vorinostat -0.028 | silmitasertib 0.06 | [2] -0.048 | entospletinib -0.007

From the supplement of paper PMC10849652
